Here are results for 107 sequences from PubChem BioAssay AID1508600 (Functional Genomics Laboratory (NCATS/FGL), 2020).

About 3,700 (7%) of roughly 53,000 sequences were called active.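 The calls were made as follows: active = gene knockdowns whose robust z-score for IL-1 alpha signal is at least 2 or at most -2, so actives lie on both sides; inactive = the rest.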 The list shows a part of the results.

The nature of this assay: Components of the Cytosolic LPS Sensing Pathway: Gene Identification via Genome-wide siRNA Screen.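 Also: robust z of the log signal after scaling to non-targeting control siRNA wells of the plate.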 The settings on record: RAW264.7 macrophages, IL-1a HTRF, actives lie on both sides, screened at 100 nM (by protocol), cells primed 5 h with Pam3CSK4 first. The procedure, abridged: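 Three distinct siRNAs per gene were tested singly at 100 nM in RAW264.7 macrophages. Following Pam3CSK4 priming and 24 hour LipidA transfection, IL-1a secretion was read by HTRF.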
On to GGCUGAGAACUUUUUAUUUTT against Dll3, for which the z-score is inactive: 0.153.
As for GCUACAAUGUCUUCUGGUCTT against Mogs, the z-score was inactive: 1.43.
Next, GGCCAAGAAGGUACGUUUCTT against Dcx: inactive: 0.373; GGAUUCAGGGAACAGCAAUTT against Ntrk3: active: -3.08.
Next, GGUUAUUGAAGAUGAUAGATT against Sec24c: inactive: -1.16; GGUCAAGAUCCGAAGCUACTT against Cntn2: inactive: -0.749.
On to GGUCUCAAGUUGAAAGAAATT against Cemip, for which the z-score is inactive: -0.892.
GGUGUUUCUGUUCUGAUUCTT against Olfr703: the z-score was inactive: 0.0332.
Then “GCUCAAAACAAUCCACGCCTT against 1700006J14Rik”, with inactive: -0.47; and CCAAACACUAUGGCCUGAUTT against Dagla, with inactive: 0.548.
In the case of CGUGGAGAUCAUCCACUCATT against Inf2, the z-score is active: -2.44.
Then GGGCACAAGAUCUCAAUUUTT against B4galt7, with inactive: -0.32; and GCCAUUCUCACUCCUAGUUTT against Foxj2, with inactive: -1.2.
Then GGCCAUCGAAAAGAAUGUGTT against Prkar1a, with inactive: -0.5.
Then GACCUUCCAGGUCAAGUUGTT against Plcg1, with active: 2.56; and UUUAGCUUUCUUCUGGCUCTT against Olfr237, with inactive: 0.035; and GCUAGCAUAGUCAAAAACUTT against Ptges, with inactive: -0.45.
For GCCUGAGGAUCUAUAGAUATT against Prss29, the z-score is inactive: -1.36.
On to GGAAGAAAUUCAAAAACUGTT against Golga5, for which the z-score is inactive: -0.653.
Next, GGAAGAACAGACUUGCCUGTT against Sh3bp1: inactive: -0.665.
Next, GGACCAUAAUGGCAAUAAATT against ccdc198: inactive: 1.08.
Then GGGCUUGAUUGAAUCGGCUTT against Rufy3, with inactive: 0.163.
As for GAUUCAACCUGUCCAAGCUTT against Naa80, the z-score was inactive: -0.726.
Then CGAGGCUAACAAACUCAUATT against Guca2a, with inactive: 0.883; and GGUGAUUGUGCACCUGUUGTT against Tex14, with inactive: 0.622.
Then GGUGGAAGAACUCUGUCAGTT against Rnf40, with inactive: 0.838; and GCCCAAUAGAAGCUGGAUGTT against Tex29, with inactive: -1.99; and CGGAGUAUUUCUAUCCACGTT against Gas6, with inactive: -1.62.
For the sequence GGAUGGAGAUGAAAUUAUCTT against Atp8a2, the z-score is inactive: -0.375.
Then GGAAUCCUUUGGUUAUUCATT against Hs6st1, with inactive: 0.876; and “GCACUGUUUGUGCAAACAATT against C130071C03Rik”, with active: -2.22; and GCCAAGUUAGAAGUUAGAATT against Mrpl42, with inactive: -0.925.
Next, CGAAAACGAGAUCACCAAATT against E2f7: inactive: -0.347; GGAUGAGUGCUCCAAGAUCTT against Alkbh5: inactive: -0.4.
Then GCCUCAGCAAGUGUUAGAUTT against Map4, with inactive: 0.291.
Regarding GGAUGAUGUGACAGAGACCTT against Trpv3, the z-score is inactive: -0.0206.
Next, CCGAUUUGAAAAGCUAAUGTT against Fmnl1: inactive: 1.21.
CGUUGAUUUCCAAAGCUGUTT against Kcnc2: the z-score was inactive: 0.897.
Then CCAUCCUAGCUGUGGUAAGTT against Olfr554, with inactive: 1.32.
Then CCAAUAUCACAUUUGCUUUTT against Crb1, with inactive: -0.568; and GCCACCUUUAAAGAACCUUTT against Zeb1, with inactive: -0.863; and CGUGGAGGUAUGCACACGUTT against Ndrg1, with inactive: -1.96.
Then CGGCAUGAGCAGUUUAUAUTT against Col19a1, with inactive: -1.04; and GCCAUGAUACCUUGUUAUUTT against Plppr5, with inactive: 1.08; and “GCUAUUAAGUUUACCCUAGTT against A730089K16Rik”, with inactive: -1.31.
Regarding CCGUCUUAAUUCUCACCUUTT against Fastkd5, the z-score was inactive: 0.573.
Consider GGUCCGGUCUCAGACUUCATT against Ift27, for which the z-score was inactive: 1.16.
Regarding GGUGUAGUAAUAGGAUUUUTT against Ak3, the z-score was inactive: 0.227.
Next, GGCCAUGGUACACAAUGGUTT against Obp2a: inactive: -0.416; GCAACCAUUCAAACAUUUGTT against Sun3: inactive: 1.87.
Then GGAUUUAAGUCAAAUCUCUTT against Rxfp3, with inactive: 0.439.
Next, GCAAGAUUUAUCUUGUACCTT against Tex2: inactive: -0.576; GGCUCAUUUCCUUAUAUGATT against Nepro: inactive: -0.259.
On to CGAGUCAAAAUCGAAUGAUTT against Mios, for which the z-score was inactive: -0.168.
With GGUGAUAACUCCCUAGUAGTT against Elp5, the z-score is inactive: -0.934.
Then GGUUUUCUUCAACAUCCUGTT against Bcs1l, with inactive: 0.0241.
Next, CCUUGUGCCGAGAUUUUCCTT against Tceal5: inactive: 0.49; GGAAGAGAUCGAUGAGACUTT against Cyp3a41a: inactive: 0.91.
Next, GGCUUCUACACAUGGGAUGTT against Rnaset2b: inactive: -0.394; CGUGCUAAAUGCUUGUGUGTT against Ramac: inactive: 0.138; GGAUUUGGCUAUAUCAACATT against Rfc2: inactive: -1.56.
Turning to GGAGGAGACUAAAGAAAAUTT against Myf6, the z-score is inactive: -1.53.
Next, GGUCACUCGGUUCACAAAATT against Bid: inactive: -0.731; GGAAUGAAGACAAUUGUACTT against Trim69: inactive: -0.147.
Then GGUCAUCACCUAUGCAGGGTT against Olfr1353, with inactive: 0.707.
Take GGAAGAUCCAUUAUUUACUTT against Fam160b1: the z-score is inactive: 0.349.
Then GGAUGACAAGAAUACAAUGTT against Myo5a, with inactive: 0.171.
Take GGUGGCUCUGAAGAAAGUGTT against Cdk9: the z-score is inactive: -1.02.
Next, GGUCAUCUGCUAAUAGAAUTT against Bcap29: inactive: 1.86; GGAUGCUCAUGGACCUUUGTT against Olfr1122: inactive: 0.931; GCAAGCAACCCAUAGUCUATT against Hoxc4: inactive: -0.39.
Then GGAAAGAAAGACAAAGAAGTT against Cst6, with inactive: 0.0489.
Next, UGGCGUGUCUCCUAUCCAUTT against Abl2: inactive: -1.53; GCUUUUAGGUGUGCUGUCCTT against Psg28: inactive: -0.949.
Take CCUUGUUGUGACAAGCUUUTT against Rchy1: the z-score was inactive: -0.362.
Turning to CGUGAGACCCUCAAGCUUGTT against Fam110b, the z-score was inactive: -0.777.
Then GCUCUAUGGGAGAUUUGGATT against Itga2b, with inactive: -0.399; and GCAGAGGAGUUUUCAAUUUTT against Il17rb, with inactive: 0.997.
In the case of GGGUGGAAGCUUUGAGAGATT against Bag2, the z-score is inactive: 0.376.
For the sequence GCCUGCGUCUUGUUCUGAGTT against Agtr1a, the z-score was inactive: -0.232.
Then GGACUUUGUACGUUUCCUUTT against H1f0, with inactive: -1.59; and GGACAAGAAAUACACCAUGTT against Gstm2, with inactive: -1.8.
For GGCCUUUGUAUUUCCCAAGTT against Crp, the z-score is inactive: 0.244.
Next, GCCUAUGAAGGAACCACAUTT against Cdh2: inactive: 1.39; GGCUCAUUUGCUGAGUGUGTT against Fscn2: inactive: 1.68.
For GGAUCCUUCUCUGUAAUAUTT against Ubxn2b, the z-score was inactive: -1.34.
Then CCUGUUUUUGCUACAUAGATT against Hhat, with inactive: 0.905; and CGGUUACUUGUAACAUUCCTT against Stoml3, with inactive: 1.04.
Next, GGUUUUUGUUAAGGUCAAUTT against Abca16: inactive: 0.209.
Next, “GGCUUUCCGUAUAACCUACTT against 1700018F24Rik”: inactive: 0.0527; GGAGUUUCUAUUCAACAUGTT against Hoxa10: inactive: 0.544; GGGUUUAUUAGAUUUGUCUTT against Ammecr1: inactive: -0.494.
Regarding GGACACUCAAUGAAAUCUATT against Foxp3, the z-score was inactive: 1.21.
Then GGUUUACAAAGGCACACCCTT against Prim2, with inactive: 1.08; and GGUGGUUGAAAUAUGAUGATT against Klhl7, with inactive: -0.306.
Then CGUAUUCUGGUAGUGAAGGTT against Olfr1384, with active: -2.3; and CCUUUUUGCUGAAUGUGGATT against Aard, with inactive: 0.798.
Next, GCAACCUGUUAACAGAAGUTT against Tmco6: inactive: 0.324.
Turning to GGAAGAGGAGGAAAAGUCUTT against Armcx1, the z-score is inactive: -1.24.
Then GGGUGACAGACAAUGGUCUTT against Hk2, with inactive: 0.528; and GCCCAAGCAGUUCAUUCAUTT against Epc2, with inactive: 0.665; and GUCCUGGAAGAAAUGAGAATT against Ifna4, with inactive: 0.781.
Then GGAGAAGACUUGUAACAAATT against Hacd4, with active: 5.28; and GGGUGUAGACAGUUCUUUGTT against Adam30, with inactive: 0.78.
Then GCACUGAAACUCCAUCCUATT against Rag1, with inactive: 0.85.
Take GGCCCAUUACUUGUUGACUTT against Fanci: the z-score is inactive: 0.378.
Next, GGCCUUUGUGCGCACUUAUTT against Armc5: inactive: -0.616.
